Results are given in words; binding and its absence hold for the method and conditions named. In cells and extracts the contact can be indirect. Binding calls can cover weak binding; strength is not graded here.

By UniProt entry, the sequences of proteins in these tests, tags left out. Where a name states a change or a piece, a line headed by the entry shows the natural chain unless it says otherwise.
UniProt Q9Y6X2: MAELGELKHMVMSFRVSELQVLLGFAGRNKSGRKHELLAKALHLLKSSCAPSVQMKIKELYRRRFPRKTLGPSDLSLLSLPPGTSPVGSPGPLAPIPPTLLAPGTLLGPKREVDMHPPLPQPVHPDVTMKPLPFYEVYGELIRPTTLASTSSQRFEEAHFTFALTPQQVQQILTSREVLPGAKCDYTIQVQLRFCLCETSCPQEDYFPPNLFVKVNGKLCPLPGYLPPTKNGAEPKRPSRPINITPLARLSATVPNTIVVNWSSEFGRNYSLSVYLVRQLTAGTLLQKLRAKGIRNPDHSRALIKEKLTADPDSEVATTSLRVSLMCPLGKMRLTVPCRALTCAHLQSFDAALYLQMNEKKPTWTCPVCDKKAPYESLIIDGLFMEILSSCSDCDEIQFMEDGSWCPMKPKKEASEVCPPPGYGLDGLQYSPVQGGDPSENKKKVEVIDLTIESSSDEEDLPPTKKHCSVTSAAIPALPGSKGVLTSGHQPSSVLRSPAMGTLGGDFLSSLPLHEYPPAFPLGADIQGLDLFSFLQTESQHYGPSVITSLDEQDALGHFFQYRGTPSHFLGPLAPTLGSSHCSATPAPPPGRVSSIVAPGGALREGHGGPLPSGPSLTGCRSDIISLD
UniProt Q04206: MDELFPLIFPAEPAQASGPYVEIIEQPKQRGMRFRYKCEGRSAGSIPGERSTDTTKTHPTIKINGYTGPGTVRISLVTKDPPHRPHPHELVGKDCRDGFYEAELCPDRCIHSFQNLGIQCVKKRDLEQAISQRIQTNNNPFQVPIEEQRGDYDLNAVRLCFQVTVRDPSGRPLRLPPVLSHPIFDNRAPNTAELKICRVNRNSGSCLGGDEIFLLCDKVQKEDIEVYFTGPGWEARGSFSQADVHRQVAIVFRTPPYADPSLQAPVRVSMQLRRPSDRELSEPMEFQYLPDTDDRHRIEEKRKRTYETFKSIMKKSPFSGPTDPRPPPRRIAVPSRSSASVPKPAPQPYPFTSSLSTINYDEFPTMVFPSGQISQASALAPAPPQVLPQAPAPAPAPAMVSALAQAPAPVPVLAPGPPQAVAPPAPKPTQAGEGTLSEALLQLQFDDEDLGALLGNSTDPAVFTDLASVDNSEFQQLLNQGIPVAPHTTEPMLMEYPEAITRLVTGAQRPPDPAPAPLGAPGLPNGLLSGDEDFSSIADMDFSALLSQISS

The target in the assay is human PIAS3-AA point mutant (LXXLL motif mutated) (human) (UniProt Q9Y6X2). The assay is described as follows: co-IP; HEK293T cells co-transfected with the tagged expression plasmids; whole-cell extracts in 50 mM Tris pH 7.4, 150 mM NaCl, 1% Nonidet P-40, 0.5% deoxycholate; primary antibody at 4 °C overnight, Protein G Sepharose 4-6 h; western blot with anti-tag mAbs (for bPIAS with bRel: precipitated with anti-Flag, blotted with anti-HA). Background: Immunoblotting shows a protein as a band on a membrane.

For the substance “human NF-κB p65, full length, Flag-tagged (from UniProt Q04206 1-551)”, the binding entry is reported as “binds”.

The values above are taken from article PMC5719053.
